# Results taken from PubChem BioAssay AID1439 (NMMLSC, 2008).
# Sequences of proteins named here, by UniProt entry; tags and fusion partners are left off.
# UniProt P09471, whole entry, looked up: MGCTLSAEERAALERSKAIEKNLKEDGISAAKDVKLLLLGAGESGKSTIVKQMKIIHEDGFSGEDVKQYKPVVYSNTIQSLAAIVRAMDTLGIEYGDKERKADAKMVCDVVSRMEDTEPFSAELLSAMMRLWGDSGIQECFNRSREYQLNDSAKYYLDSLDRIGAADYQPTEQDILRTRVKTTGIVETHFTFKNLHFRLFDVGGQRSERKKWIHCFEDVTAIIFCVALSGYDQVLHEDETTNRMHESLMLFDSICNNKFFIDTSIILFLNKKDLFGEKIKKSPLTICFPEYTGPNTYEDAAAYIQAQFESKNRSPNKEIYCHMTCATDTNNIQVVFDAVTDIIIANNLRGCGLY
# The campaign covered roughly 220,000 compounds. About 770 (0.35%) were called active. Inconclusive results, whose numbers are uncertain, are shown with a selection of clear calls. No stated cut-off is given here; in the data, active means binding response below about 49% or above about 150%; inconclusive means no clear call, values can overlap the other calls; inactive means in between.
# Biological target: Guanine nucleotide-binding protein G(o) subunit alpha (Homo sapiens) (UniProt P09471)
# Test: RGS7-Galphao binding modulators, primary screen, biochemical, multiplexed bead flow cytometry (AID 1439);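 further: fluorescent Galphao held in activated GDP-AlF4 state binding bead-coupled RGS7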
# Conditions: at 10 µM, actives lie on both sides
row,Compound,binding response (% of control)
1,COc1ccc(-c2noc(CCc3ccccc3)n2)cc1,inconclusive: 89.5%
2,COc1ccc(NC(=O)CNC(=O)Cn2c(C)cc3ccccc3c2=O)c(OC)c1,inconclusive: 104%
3,CN(c1ccccn1)c1ncnc2[nH]ncc12,inconclusive: 95.5%
4,COc1ccc(C2NCCc3c2[nH]c2ccccc32)cc1CSc1nc2ccccc2s1 (stereo not given),inactive: 99.6%
5,CCCn1cnc2c(=S)nc(N)[nH]c21,inconclusive: 108%
6,COC(=O)c1ccccc1NC(=O)CN(C)S(=O)(=O)c1cc(C)ccc1OC,inactive: 107%
7,COCCCNC(=S)Nc1ccc2nc3n(c(=O)c2c1)CCCCC3,inconclusive: 101%
8,COc1ccc(Nc2ncnc3c2cnn3-c2cccc(C)c2)cc1OC,inconclusive: 127%
9,CCC1C(C#N)=C(SCC(N)=O)NC2=C1C(=O)CC(C)(C)C2 (stereo not given),inconclusive: 81.4%
10,CN(CCC#N)C(=O)CC1(Cc2ccccc2)CCOC(C)(C)C1 (stereo not given),inconclusive: 120%
11,O=C(N/N=C/c1ccc([N+](=O)[O-])cc1)c1cnccn1,inconclusive: 83.2%
12,O=C(CCC1CCCN(C(=O)C2CCCC2)C1)NCc1ccc(F)c(F)c1 (stereo not given),inactive: 102%
13,Cc1cc(=O)[nH]c(/N=C(\N)Nc2ccc(Oc3ccccc3)cc2)n1,inconclusive: 87.9%
14,COc1cccc(N2C(=O)C3NN=C(C(=O)CN4C(=O)c5ccccc5C4=O)C3C2=O)c1 (stereo not given),inconclusive: 90.1%
15,CCOC(=O)c1c(CN2CCN(CCO)CC2)n(-c2ccccc2)c2cc(Br)c(O)cc12,inconclusive: 146%
16,CSC1=NC(=O)/C(=C\c2cccc3ccccc23)S1,active: 223% [activator]
17,Cc1cc(=S)nc(-c2ccccn2)[nH]1,inconclusive: 104%
18,CC(NC(=O)CSc1ncccc1C(=O)O)C1CC2CCC1C2 (stereo not given),inconclusive: 17.2%
19,COc1cc(S(=O)(=O)N2CCN3CCCC3C2)ccc1-n1cnnn1 (stereo not given),inactive: 82.2%
20,COc1ccc(C2/C=C\CN(CC(C)C)CC(=O)N2Cc2ccc(F)cc2)cc1 (stereo not given),inconclusive: 112%
21,CCOc1ccc(N(Cc2ccccc2F)C2=NC3CS(=O)(=O)CC3S2)cc1 (stereo not given),inactive: 101%
22,Cc1cccc(CSCCNC(=O)CN(c2cc(C)cc(C)c2)S(C)(=O)=O)c1,inconclusive: 102%
23,C=CCC(CC)C(=O)NC(=O)N1CCCc2ccccc21 (stereo not given),inconclusive: 189%

# 13 of the compounds above, bar-delimited.
row | Compound | binding response (% of control)
3 | CN(c1ccccn1)c1ncnc2[nH]ncc12 | inconclusive: 95.5%
4 | COc1ccc(C2NCCc3c2[nH]c2ccccc32)cc1CSc1nc2ccccc2s1 (stereo not given) | inactive: 99.6%
5 | CCCn1cnc2c(=S)nc(N)[nH]c21 | inconclusive: 108%
6 | COC(=O)c1ccccc1NC(=O)CN(C)S(=O)(=O)c1cc(C)ccc1OC | inactive: 107%
7 | COCCCNC(=S)Nc1ccc2nc3n(c(=O)c2c1)CCCCC3 | inconclusive: 101%
8 | COc1ccc(Nc2ncnc3c2cnn3-c2cccc(C)c2)cc1OC | inconclusive: 127%
9 | CCC1C(C#N)=C(SCC(N)=O)NC2=C1C(=O)CC(C)(C)C2 (stereo not given) | inconclusive: 81.4%
10 | CN(CCC#N)C(=O)CC1(Cc2ccccc2)CCOC(C)(C)C1 (stereo not given) | inconclusive: 120%
11 | O=C(N/N=C/c1ccc([N+](=O)[O-])cc1)c1cnccn1 | inconclusive: 83.2%
12 | O=C(CCC1CCCN(C(=O)C2CCCC2)C1)NCc1ccc(F)c(F)c1 (stereo not given) | inactive: 102%
13 | Cc1cc(=O)[nH]c(/N=C(\N)Nc2ccc(Oc3ccccc3)cc2)n1 | inconclusive: 87.9%
14 | COc1cccc(N2C(=O)C3NN=C(C(=O)CN4C(=O)c5ccccc5C4=O)C3C2=O)c1 (stereo not given) | inconclusive: 90.1%
15 | CCOC(=O)c1c(CN2CCN(CCO)CC2)n(-c2ccccc2)c2cc(Br)c(O)cc12 | inconclusive: 146%

# (list continues)

row,Compound,binding response (% of control)
1,CC(C)CN(C(=O)CN1CCOCC1)c1c(N)n(CC(C)C)c(=O)[nH]c1=O,inactive: 106%
2,CN1CCN(C(=O)CSc2cc(=O)n(C)c3ccccc23)CC1,inactive: 99.9%
3,CC(C)(C)NC(=O)NCc1ccco1,inconclusive: 187%
4,COc1ccc(C(=O)N/C(=C\c2cn(C)c3ccccc23)C(=O)OCCN(C)C)cc1,inconclusive: 27.7%
5,CS(=O)(=O)N1CCN(c2ncnc3c2cnn3-c2ccccc2)CC1,inactive: 99%
6,CCCCOCCCNC(=O)N[C@H](C(=O)OC)C(C)CC (stereo not given in full),inconclusive: 65.8%
7,CCCCCCCCn1ccc(=N)cc1,inconclusive: 90.8%
8,COc1ccccc1C(=O)Nc1cccc(Oc2c(F)c(F)c(F)c(F)c2F)c1,inconclusive: 130%
9,Cc1cccc(-c2ncc(CN3CCCC(CO)(Cc4ccccc4C)C3)cn2)c1 (stereo not given),inactive: 105%
10,Cc1ccc(C(=O)Cn2nnc3ccccc32)cc1[N+](=O)[O-],inconclusive: 134%
11,CC(C)OP(=O)(OC(C)C)C(Nc1ccc([N+](=O)[O-])cc1)c1cccc([N+](=O)[O-])c1 (stereo not given),inconclusive: 91.2%
12,O=C(NNC(=S)Nc1ccccc1Cl)c1ccncc1,inconclusive: 106%
13,CCN(CC)S(=O)(=O)c1ccc(NN=c2c(=O)c3ccccc3c2=O)cc1,inconclusive: 109%
14,CC1CCCCC1NC(=O)CN(C)S(=O)(=O)c1cccc2cccnc12 (stereo not given),inconclusive: 115%
15,COCCCNc1nc2ccccc2nc1NS(=O)(=O)c1ccc(C)cc1,inconclusive: 118%
16,Cc1ccn2c(=O)nc(SCc3cccc(C(F)(F)F)c3)nc2c1,inactive: 101%
17,CCOc1cc(NC(=O)CCl)c(OCC)cc1NC(=O)CCl,inconclusive: 67.8%
18,Cc1cc(C)cc(NC(=O)Nc2ccc(N3CCCCC3)cc2)c1,inconclusive: 108%
19,COc1cc(/C=C/C(=O)OCC(=O)N2CC(=O)Nc3ccccc32)ccc1O,inconclusive: 118%
20,NC(=O)CSc1nnc(Cc2ccc3c(c2)OCO3)o1,inconclusive: 100%
21,CC1(CCl)N([O-])C2=C(CCCC2)[N+]1=O (stereo not given),inconclusive: 87.2%
22,O=S1(=O)CCC(NC(=S)Nc2ccc3ccccc3c2)C1 (stereo not given),inconclusive: 99.9%
